PubChem BioAssay AID743121 | NCATS | 2013
Assay: 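Partners whose loss is lethal together with topoisomerase I blockade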 (primary screen). Cell system: MDA-MB-231 cells, a human breast cancer line. Reagents: single siRNA against human genes, 20 nM siRNA (0.8 pmol per well). Timing: 120 h (drug added 48 h after transfection, read 72 h later). Challenge: camptothecin 20 nM (about EC30) for 72 h; vehicle 0.1% DMSO in parallel plates. Detection: 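CellTiter-Glo ATP signal, scaled to control siRNA as percent viability; sensitisation given as log2 of untreated divided by camptothecin-treated viability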. Scale: log2 vehicle/camptothecin viability: higher = stronger sensitisation to camptothecin. Call rule: 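Each gene scored by redundant siRNA activity (RSA) over its individual siRNA ratios; a gene is called active at p < 0.001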.
The whole screen tested about 26,000 reagents; shown is a random part of them. 167 of all reagents (0.63%) count as active. 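Calls are per gene from RSA p-values that are not deposited; an individual active-marked siRNA can sensitise only weakly.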 Reagents against one gene are numbered here. Not all columns of the deposit are shown. Reagent sequences are not shown.

CBLL1 (GeneID 79872) #1 | log2 vehicle/camptothecin viability = -0.612; outcome = inactive
CBLL1 (GeneID 79872) #2 | log2 vehicle/camptothecin viability = -0.318; outcome = inactive
CBLL1 (GeneID 79872) #3 | log2 vehicle/camptothecin viability = -0.174; outcome = inactive
CDK5R1 (GeneID 8851) #1 | log2 vehicle/camptothecin viability = -0.232; outcome = inactive
CDK5R1 (GeneID 8851) #2 | log2 vehicle/camptothecin viability = 0.0337; outcome = inactive
CDK5R1 (GeneID 8851) #3 | log2 vehicle/camptothecin viability = 0.0935; outcome = inactive
CDK5R1 (GeneID 8851) #4 | log2 vehicle/camptothecin viability = 0.126; outcome = inactive
TRAF5 (GeneID 7188) #1 | log2 vehicle/camptothecin viability = -0.323; outcome = inactive
TRAF5 (GeneID 7188) #2 | log2 vehicle/camptothecin viability = -0.235; outcome = inactive
TRAF5 (GeneID 7188) #3 | log2 vehicle/camptothecin viability = -0.36; outcome = inactive
TSC2 (GeneID 7249) #1 | log2 vehicle/camptothecin viability = -0.475; outcome = inactive
TSC2 (GeneID 7249) #2 | log2 vehicle/camptothecin viability = 0.00881; outcome = inactive
TSC2 (GeneID 7249) #3 | log2 vehicle/camptothecin viability = -0.18; outcome = inactive
TSC2 (GeneID 7249) #4 | log2 vehicle/camptothecin viability = -0.216; outcome = inactive
PDCL (GeneID 5082) #1 | log2 vehicle/camptothecin viability = -0.376; outcome = inactive
PDCL (GeneID 5082) #2 | log2 vehicle/camptothecin viability = -0.232; outcome = inactive
PDCL (GeneID 5082) #3 | log2 vehicle/camptothecin viability = -0.0616; outcome = inactive
PDCL (GeneID 5082) #4 | log2 vehicle/camptothecin viability = -0.0111; outcome = inactive

Already shown: 6 of the entries above.
CDK5R1 (GeneID 8851) #2 | log2 vehicle/camptothecin viability = 0.0337; outcome = inactive
CDK5R1 (GeneID 8851) #3 | log2 vehicle/camptothecin viability = 0.0935; outcome = inactive
CDK5R1 (GeneID 8851) #4 | log2 vehicle/camptothecin viability = 0.126; outcome = inactive
TRAF5 (GeneID 7188) #1 | log2 vehicle/camptothecin viability = -0.323; outcome = inactive
TRAF5 (GeneID 7188) #2 | log2 vehicle/camptothecin viability = -0.235; outcome = inactive
TRAF5 (GeneID 7188) #3 | log2 vehicle/camptothecin viability = -0.36; outcome = inactive

The list goes on:
NCKAP1 (GeneID 10787) #1 | log2 vehicle/camptothecin viability = 0.0769; outcome = inactive
NCKAP1 (GeneID 10787) #2 | log2 vehicle/camptothecin viability = -0.366; outcome = inactive
NCKAP1 (GeneID 10787) #3 | log2 vehicle/camptothecin viability = 0.0683; outcome = inactive
NCKAP1 (GeneID 10787) #4 | log2 vehicle/camptothecin viability = -0.251; outcome = inactive
OPRK1 (GeneID 4986) #1 | log2 vehicle/camptothecin viability = 0.281; outcome = inactive
OPRK1 (GeneID 4986) #2 | log2 vehicle/camptothecin viability = 0.0147; outcome = inactive
OPRK1 (GeneID 4986) #3 | log2 vehicle/camptothecin viability = -0.302; outcome = inactive
OPRK1 (GeneID 4986) #4 | log2 vehicle/camptothecin viability = -0.467; outcome = inactive
UCN2 (GeneID 90226) #1 | log2 vehicle/camptothecin viability = -0.149; outcome = inactive
UCN2 (GeneID 90226) #2 | log2 vehicle/camptothecin viability = -0.121; outcome = inactive
UCN2 (GeneID 90226) #3 | log2 vehicle/camptothecin viability = -0.905; outcome = inactive
UCN2 (GeneID 90226) #4 | log2 vehicle/camptothecin viability = -0.65; outcome = inactive
OSM (GeneID 5008) #1 | log2 vehicle/camptothecin viability = -0.0449; outcome = inactive
OSM (GeneID 5008) #2 | log2 vehicle/camptothecin viability = 0.133; outcome = inactive
OSM (GeneID 5008) #3 | log2 vehicle/camptothecin viability = -0.193; outcome = inactive
OSM (GeneID 5008) #4 | log2 vehicle/camptothecin viability = 0.264; outcome = inactive
GPR83 (GeneID 10888) #1 | log2 vehicle/camptothecin viability = -0.163; outcome = inactive
GPR83 (GeneID 10888) #2 | log2 vehicle/camptothecin viability = 0.5; outcome = inactive
GPR83 (GeneID 10888) #3 | log2 vehicle/camptothecin viability = -0.133; outcome = inactive
GPR83 (GeneID 10888) #4 | log2 vehicle/camptothecin viability = 0.277; outcome = inactive
